Article doi:10.1101/2025.11.17.688911
No constants are given. Whether binding was seen depends on the method and setting. Where a sequence is shown, tags or fusion partners need not be part of it.

Biological target: full-length (FL) human MAP9 (GFP::Human MAP9::strepII) (human) (UniProt Q49MG5)
Experiment: mass photometry; purified MAP9 in solution; measured mass against the expected monomer mass; both purified

B1: full-length (FL) human MAP9 (GFP::Human MAP9::strepII) (protein, UniProt Q49MG5 1-647)
chain: MSDEVFSTTLAYTKSPKVTKRTTFQDELIRAITARSARQRSSEYSDDFDSDEIVSLGDFSDTSADENSVNKKMNDFHISDDEEKNPSKLLFLKTNKSNGNITKDEPVCAIKNEEEMAPDGCEDIVVKSFSESQNKDEEFEKDKIKMKPKPRILSIKSTSSAENNSLDTDDHFKPSPRPRSMLKKKSHMEEKDGLEDKETALSEELELHSAPSSLPTPNGIQLEAEKKAFSENLDPEDSCLTSLASSSLKQILGDSFSPGSEGNASGKDPNEEITENHNSLKSDENKENSFSADHVTTAVEKSKESQVTADDLEEEKAKAELIMDDDRTVDPLLSKSQSILISTSATASSKKTIEDRNIKNKKSTNNRASSASARLMTSEFLKKSSSKRRTPSTTTSSHYLGTLKVLDQKPSQKQSIEPDRADNIRAAVYQEWLEKKNVYLHEMHRIKRIESENLRIQNEQKKAAKREEALASFEAWKAMKEKEAKKIAAKKRLEEKNKKKTEEENAARKGEALQAFEKWKEKKMEYLKEKNRKEREYERAKKQKEEETVAEKKKDNLTAVEKWNEKKEAFFKQKEKEKINEKRKEELKRAEKKDKDKQAINEYEKWLENKEKQERIERKQKKRHSFLESEALPPWSPPSRTVFAKVF
With B1 the binding was “no binding”.
